Results from one PubChem assay

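Genome-wide siRNA knockdown in TC32 Ewing sarcoma cells, comparing luciferase light from an NR0B1-promoter reporter with a CMV-promoter reporter 48 hours after transfection.
Each siRNA was applied at 20 nM.
A z-score of the log NR0B1-over-CMV signal, less the median of siRNAs with the same seed; more negative means a stronger specific loss of the NR0B1 reporter.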

This is part of the screen; most of the strongest results are not listed here.
Sequences are the guide (antisense) strand, without overhang.

| # | strand | target gene | seed-corrected z-score |
|---|---|---|---|
| 1 | `UUCUGUAAGUGACUGCUCC` | PINK1 | -0.2637 |
| 2 | `UGUCAUCCAAAGUACCUCC` | BBX | 0.6931 |
| 3 | `UCAUAUAUCACAGACCCGG` | NAGA | 0.05587 |
| 4 | `UCGCUCAUAACCAUAGUCG` | SORCS1 | -0.0007185 |
| 5 | `UAACAUGUCAUCUAUUGAG` | LOC727961 | 0.05903 |
| 6 | `UCUUCGACAACGUGAGGUC` | GTPBP4 | 0.09502 |
| 7 | `UACUCUAUUUCAGAUUUCC` | RPL30 | -0.8604 |
| 8 | `UCGAAGUCCGUGUAGACGG` | PIM1 | -0.4956 |
| 9 | `AUUAGGCUCAGAGUAAAGG` | TAS2R19 | 0.3032 |
| 10 | `UGGAGUUCCACUUUUGGUC` | PTPN23 | -0.4902 |
| 11 | `UUCACGUCUAGCAGCACCG` | HSPB6 | -0.2794 |
| 12 | `UGUCUAAAAGGUAUUCACG` | GATAD2B | 0.721 |
| 13 | `UCAGGUCUCAGGUGGAUUC` | GABARAPL1 | -0.1475 |
| 14 | `UUACAGCGAUGGUAUAUGC` | SUPT16H | -0.3191 |
| 15 | `AUAGCGAGAGGAAUUGAGU` | GLTPD2 | 0.8889 |
| 16 | `UUGUUGGACAAUCCACAGC` | NPY5R | -0.3192 |
| 17 | `AUUGGUCCAAUUUCACAGU` | RABIF | -0.9127 |
| 18 | `UCAGGAUCAAUGGGACUUG` | HLF | 1.731 |
| 19 | `UAGCGUAUAGUUGGUUUCG` | ANGPTL3 | -0.7095 |
| 20 | `UCGAAGGAAAGGGCAAUGC` | TEP1 | -1.441 |
| 21 | `UUAUCUUACAAUCCUUUUC` | SULT1E1 | -0.02304 |
| 22 | `UCCGUGUCAAUUGGGACUC` | IGDCC3 | 1.077 |
| 23 | `UUCCUCUUUAAUCCGGUCC` | TLE1 | -0.6186 |
| 24 | `UGCUUUAUUAUCGGCCUCC` | BHLHA9 | -0.5368 |
| 25 | `UUGCUGUACUCAGAGGUCA` | HAPLN2 | 0.9008 |
| 26 | `UGAGCACUAAGGUAUUGCC` | ALDH1L2 | 0.3408 |
| 27 | `UGGUGGAGUACGGAUGAGC` | TEKT4 | 0.9117 |
| 28 | `UCAAUGAUAUUGUCCAGCC` | STAT3 | 0.3567 |
| 29 | `UCGGUAGACGCACAUGUCC` | HOXD13 | 1.465 |
| 30 | `AUACGGAACAAGGUCUUCC` | COG8 | -0.09099 |
| 31 | `UCAGGGACUAGCUCGUGCU` | POLR2E | -1.653 |
| 32 | `UUCUGAGCCUCUGUGCUCC` | TNFRSF13B | 0.3227 |
| 33 | `UGACUGGAUAUUAACUGCU` | MS4A3 | -0.3995 |
| 34 | `UUUAAAAUCAAUCUCCUUG` | OR52N1 | 0.6538 |
| 35 | `UUUCUCACUGGUGUAUUUC` | TPRG1 | 0.3448 |
| 36 | `UCUGGUCAUAGGCGGCUUC` | BSND | -0.06705 |
| 37 | `AAAGUUCCAUGGUAACGGC` | GSPT2 | 1.146 |
| 38 | `UGAAGUCUGACAGCCUUGG` | CPSF2 | 0.02745 |
| 39 | `UGAAGGCCCAGGGUAAUCU` | GCDH | 0.3939 |
| 40 | `UCUGCUAUUGGAAUCUUGC` | GOLIM4 | -0.5159 |
| 41 | `UGAUUUCUUGGUACUCUGC` | MVB12B | 1.371 |
| 42 | `UAUCUUUCAAGGUGGAGUA` | TBC1D13 | -0.3353 |
| 43 | `UAGGUAUGAAGUAAGGUUC` | HAT1 | -0.469 |
| 44 | `UCCUUUACCACGUAGCCGU` | RPS6KA1 | -0.2935 |
| 45 | `UUAAGUUUUCGACCUUUUC` | TPD52 | -0.3252 |
| 46 | `UCAGGGUUGGGUAGAAGAC` | CHID1 | 0.1714 |
| 47 | `UUAUGUUAACCAGCGAAGC` | SYT16 | 0.08572 |
| 48 | `UCAUCUGUCAGAAUGAACU` | VDR | -0.3768 |
| 49 | `UCUGAGAUAAUUGUGCCCG` | SLC9A3 | -1.551 |
| 50 | `AAUCAUACAUGUCAUGAUG` | PAFAH1B3 | -0.4394 |
| 51 | `UGACAUACACUGAUAUCCC` | ABCC12 | -0.2291 |
| 52 | `UGACAUUAGAGAGAACACU` | GOLGA8J | 0.2148 |
| 53 | `UUGAAUCCAAGGAUAACCC` | DERL1 | 0.2454 |
| 54 | `UUGAGAACAAUGAAGUCCG` | A4GALT | -0.3308 |
| 55 | `UUAGCAUUCAAGCUAGCUG` | RNF130 | -0.02253 |
| 56 | `AUUGUGGACAUUCAUAGGA` | ZNF443 | -0.5605 |
| 57 | `UUGUAGUCUUGUUGUAUUC` | DCTN3 | 0.008899 |
| 58 | `UGAGGUCCUACUGUGCUGG` | LPAL2 | 0.6864 |

Some entries from above, unchanged:

strand,target gene,seed-corrected z-score
UAGCGUAUAGUUGGUUUCG,ANGPTL3,-0.7095
UCGGUAGACGCACAUGUCC,HOXD13,1.465
UCUGAGAUAAUUGUGCCCG,SLC9A3,-1.551
UCGAAGUCCGUGUAGACGG,PIM1,-0.4956

From PubChem BioAssay record AID1159506 (NCATS, 2015).